PubChem BioAssay AID686938, Drosophila RNAi Screening Center – 2013

- Assay: 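Knock-downs reducing store-operated calcium influx in Drosophila cells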 (primary screen)
- Cell system: Drosophila S2R+ cells
- Knock-down reagent: long dsRNA against Drosophila genes, about 0.25 µg dsRNA per well, roughly 10,000 cells
- Duration: 5 days of knock-down before the calcium assay
- Challenge: thapsigargin (SERCA pump blocker) to empty calcium stores; entry signal taken 4 min after adding it
- Read-out: 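Duplicate raw fluo-4 intensities per well from a plate reader, at rest and four minutes after thapsigargin emptied calcium stores; entry-to-rest ratio filled for only some wells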
- Scale: calcium entry signal: higher = stronger calcium signal after store depletion; entry to resting ratio: higher = more calcium entry relative to resting level; resting calcium signal: higher = higher resting calcium signal
- Units: calcium entry signal in fluorescence units; resting calcium signal in fluorescence units
- Rule for the call: 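Hit if the duplicate-averaged plate z-score for entry over resting signal is under −3; wells with weak total dye signal (Fmax z < −2) or more than 5 off-targets removed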
- Meaning of the calls: active = strongly reduced calcium entry; inactive = no strong reduction
The screen tested about 23,000 reagents; shown is an unselected part of those with a known target gene and a result. In the full data, 75 (0.33%) got an active call. 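Raw plate signals without normalisation; calls rest on plate z-scores that were not deposited; ratio present for only 364 wells.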 Reagents against one gene are numbered here. The record does not give: the dose of the treatment.

Scox (GeneID 33711)
- calcium entry signal, replicate 1: 3.86e7
- calcium entry signal, replicate 2: 3.82e7
- resting calcium signal, replicate 1: 1.99e7
- resting calcium signal, replicate 2: 1.86e7
- activity call: inactive

MED24 (GeneID 38914)
- calcium entry signal, replicate 1: 2.83e7
- calcium entry signal, replicate 2: 3.10e7
- resting calcium signal, replicate 1: 1.38e7
- resting calcium signal, replicate 2: 1.42e7
- activity call: inactive

slx1 (GeneID 40578)
- calcium entry signal, replicate 1: 3.10e7
- calcium entry signal, replicate 2: 5.77e7
- resting calcium signal, replicate 1: 1.48e7
- resting calcium signal, replicate 2: 2.61e7
- activity call: inactive

Or82a (GeneID 318778)
- calcium entry signal, replicate 1: 3.45e7
- calcium entry signal, replicate 2: 3.33e7
- resting calcium signal, replicate 1: 1.74e7
- resting calcium signal, replicate 2: 1.55e7
- activity call: inactive

BomS3 (GeneID 50209)
- calcium entry signal, replicate 1: 2.36e7
- calcium entry signal, replicate 2: 2.59e7
- resting calcium signal, replicate 1: 1.34e7
- resting calcium signal, replicate 2: 1.19e7
- activity call: inactive

CG5787 (GeneID 34684)
- calcium entry signal, replicate 1: 4.62e7
- resting calcium signal, replicate 1: 2.24e7
- activity call: inactive

IntS9 (GeneID 39763)
- calcium entry signal, replicate 1: 3.45e7
- calcium entry signal, replicate 2: 3.98e7
- resting calcium signal, replicate 1: 1.77e7
- resting calcium signal, replicate 2: 2.94e7
- activity call: inactive

CG34160 (GeneID 5740175)
- calcium entry signal, replicate 1: 3.63e7
- calcium entry signal, replicate 2: 5.40e7
- resting calcium signal, replicate 1: 1.76e7
- resting calcium signal, replicate 2: 2.38e7
- activity call: inactive

CG3713 (GeneID 50365)
- calcium entry signal, replicate 1: 5.38e7
- calcium entry signal, replicate 2: 5.23e7
- entry to resting ratio: 2
- resting calcium signal, replicate 1: 2.63e7
- resting calcium signal, replicate 2: 2.11e7
- activity call: inactive

CG7742 (GeneID 33750)
- calcium entry signal, replicate 1: 4.31e7
- resting calcium signal, replicate 1: 2.03e7
- activity call: inactive

Ptp99A (GeneID 43469) #1
- calcium entry signal, replicate 1: 3.36e7
- calcium entry signal, replicate 2: 4.52e7
- resting calcium signal, replicate 1: 1.60e7
- resting calcium signal, replicate 2: 2.12e7
- activity call: inactive

Ptp99A (GeneID 43469) #2
- calcium entry signal, replicate 1: 4.25e7
- calcium entry signal, replicate 2: 3.21e7
- resting calcium signal, replicate 1: 1.87e7
- resting calcium signal, replicate 2: 1.73e7
- activity call: inactive

Ptp99A (GeneID 43469) #3
- calcium entry signal, replicate 1: 2.90e7
- calcium entry signal, replicate 2: 4.40e7
- resting calcium signal, replicate 1: 1.49e7
- resting calcium signal, replicate 2: 1.87e7
- activity call: inactive

Ptp99A (GeneID 43469) #4
- calcium entry signal, replicate 1: 3.24e7
- calcium entry signal, replicate 2: 4.09e7
- resting calcium signal, replicate 1: 1.70e7
- resting calcium signal, replicate 2: 1.83e7
- activity call: inactive

Ptp99A (GeneID 43469) #5
- calcium entry signal, replicate 1: 2.83e7
- calcium entry signal, replicate 2: 3.89e7
- resting calcium signal, replicate 1: 1.55e7
- resting calcium signal, replicate 2: 1.72e7
- activity call: inactive

Ptp99A (GeneID 43469) #6
- calcium entry signal, replicate 1: 1.95e7
- calcium entry signal, replicate 2: 4.21e7
- resting calcium signal, replicate 1: 1.08e7
- resting calcium signal, replicate 2: 2.02e7
- activity call: inactive

Ptp99A (GeneID 43469) #7
- calcium entry signal, replicate 1: 4.00e7
- calcium entry signal, replicate 2: 3.45e7
- resting calcium signal, replicate 1: 2.29e7
- resting calcium signal, replicate 2: 1.62e7
- activity call: inactive

Ptp99A (GeneID 43469) #8
- calcium entry signal, replicate 1: 4.03e7
- calcium entry signal, replicate 2: 3.38e7
- resting calcium signal, replicate 1: 2.05e7
- resting calcium signal, replicate 2: 1.68e7
- activity call: inactive

3 consecutive records already listed, for reference:
BomS3 (GeneID 50209)
- calcium entry signal, replicate 1: 2.36e7
- calcium entry signal, replicate 2: 2.59e7
- resting calcium signal, replicate 1: 1.34e7
- resting calcium signal, replicate 2: 1.19e7
- activity call: inactive

CG5787 (GeneID 34684)
- calcium entry signal, replicate 1: 4.62e7
- resting calcium signal, replicate 1: 2.24e7
- activity call: inactive

IntS9 (GeneID 39763)
- calcium entry signal, replicate 1: 3.45e7
- calcium entry signal, replicate 2: 3.98e7
- resting calcium signal, replicate 1: 1.77e7
- resting calcium signal, replicate 2: 2.94e7
- activity call: inactive
